In doi:10.1101/2023.10.18.562911:
Residue numbers refer to the chain shown, from its start. Results are given in words; binding and its absence hold for the method and conditions named. In cells and extracts the contact can be indirect. Some results given as binding are weak or reduced against the parent protein; the word gives no strength. For some assays here: Sequences can lack the tags named with a protein.

What was measured:
Test in all cases: co-IP
[1] = molecular target: T1, yKu70 Y569A (expressed in yeast) (S. cerevisiae) (UniProt P32807)
T1 sequence: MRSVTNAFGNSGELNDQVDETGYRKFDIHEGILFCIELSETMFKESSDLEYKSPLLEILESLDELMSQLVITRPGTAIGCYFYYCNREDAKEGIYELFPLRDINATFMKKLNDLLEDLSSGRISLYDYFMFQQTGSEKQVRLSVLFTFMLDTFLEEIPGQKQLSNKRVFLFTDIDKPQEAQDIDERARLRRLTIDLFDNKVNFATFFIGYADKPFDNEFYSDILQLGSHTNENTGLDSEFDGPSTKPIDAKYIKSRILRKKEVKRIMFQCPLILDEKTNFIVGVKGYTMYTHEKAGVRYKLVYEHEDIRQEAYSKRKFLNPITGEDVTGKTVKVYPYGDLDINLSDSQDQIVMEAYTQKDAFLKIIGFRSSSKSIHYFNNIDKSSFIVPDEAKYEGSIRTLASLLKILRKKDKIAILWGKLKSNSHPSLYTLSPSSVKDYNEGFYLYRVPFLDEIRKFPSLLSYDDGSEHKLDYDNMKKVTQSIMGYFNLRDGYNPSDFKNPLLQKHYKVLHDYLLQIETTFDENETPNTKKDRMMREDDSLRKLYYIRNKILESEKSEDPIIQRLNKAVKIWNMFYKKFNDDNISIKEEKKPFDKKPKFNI

[2] = molecular target: T2, Xrs2 (epitope-tagged, expressed in yeast) (S. cerevisiae) (UniProt P33301)
T2 sequence: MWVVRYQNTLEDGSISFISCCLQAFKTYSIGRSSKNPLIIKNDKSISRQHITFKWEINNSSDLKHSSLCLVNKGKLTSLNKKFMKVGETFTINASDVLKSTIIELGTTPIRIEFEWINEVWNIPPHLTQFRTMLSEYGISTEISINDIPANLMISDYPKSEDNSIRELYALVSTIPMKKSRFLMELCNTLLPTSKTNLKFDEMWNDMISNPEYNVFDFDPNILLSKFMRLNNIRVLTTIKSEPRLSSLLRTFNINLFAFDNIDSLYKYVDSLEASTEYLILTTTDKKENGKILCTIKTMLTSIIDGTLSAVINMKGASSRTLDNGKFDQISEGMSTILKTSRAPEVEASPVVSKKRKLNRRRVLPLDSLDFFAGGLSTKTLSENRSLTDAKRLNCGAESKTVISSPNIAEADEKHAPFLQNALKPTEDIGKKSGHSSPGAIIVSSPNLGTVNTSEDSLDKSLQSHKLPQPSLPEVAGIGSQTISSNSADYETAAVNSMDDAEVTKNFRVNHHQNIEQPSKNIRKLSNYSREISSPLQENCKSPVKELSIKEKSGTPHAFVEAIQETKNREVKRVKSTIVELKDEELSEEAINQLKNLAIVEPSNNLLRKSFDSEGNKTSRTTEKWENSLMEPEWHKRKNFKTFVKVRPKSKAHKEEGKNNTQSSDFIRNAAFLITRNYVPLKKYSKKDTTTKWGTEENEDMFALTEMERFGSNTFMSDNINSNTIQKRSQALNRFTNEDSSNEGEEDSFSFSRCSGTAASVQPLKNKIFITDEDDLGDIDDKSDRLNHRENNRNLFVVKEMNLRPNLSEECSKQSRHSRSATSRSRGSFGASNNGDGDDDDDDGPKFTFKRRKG

[3] = molecular target: T3, yKu70 F576AY577A (expressed in yeast) (S. cerevisiae) (UniProt P32807)
T3 sequence: T1 sequence with A569Y, F576A, Y577A

[4] = molecular target: T4, yKu70 4A mutant (expressed in yeast) (S. cerevisiae) (UniProt P32807)
T4 sequence: T1 sequence with F576A, Y577A, F580A

[5] = molecular target: T5, yKu70 3A mutant (expressed in yeast) (S. cerevisiae) (UniProt P32807)
T5 sequence: T1 sequence with A569Y, F576A, Y577A, F580A

[6] = molecular target: T6, yKu70 F580A (expressed in yeast) (S. cerevisiae) (UniProt P32807)
T6 sequence: T1 sequence with A569Y, F580A

Substance	binding [1]	binding [2]	binding [3]	binding [4]	binding [5]	binding [6]
histone H3 (yeast, endogenous) (from UniProt P61830 1-136)	no binding	binds	no binding	no binding	no binding	no binding
histone H3 dimethylated at Lys36 (yeast, endogenous) (from UniProt P61830 1-136)	no binding	–	no binding	no binding	no binding	no binding
